Data reported in the supplement of paper PMC10849652.
The other results are listed elsewhere or left out.

The chains behind the UniProt entries cited, without tags or fusion partners. Where a name states a change or a piece, a line headed by the entry shows the natural chain unless it says otherwise.
UniProt Q9NYG2: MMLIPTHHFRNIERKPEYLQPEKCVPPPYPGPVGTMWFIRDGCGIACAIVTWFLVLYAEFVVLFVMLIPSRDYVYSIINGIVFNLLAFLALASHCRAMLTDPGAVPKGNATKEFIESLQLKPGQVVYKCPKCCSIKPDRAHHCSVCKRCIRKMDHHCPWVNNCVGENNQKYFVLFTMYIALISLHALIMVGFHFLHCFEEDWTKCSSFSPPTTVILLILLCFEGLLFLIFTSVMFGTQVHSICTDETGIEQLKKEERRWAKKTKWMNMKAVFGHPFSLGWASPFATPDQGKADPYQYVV
UniProt P61981: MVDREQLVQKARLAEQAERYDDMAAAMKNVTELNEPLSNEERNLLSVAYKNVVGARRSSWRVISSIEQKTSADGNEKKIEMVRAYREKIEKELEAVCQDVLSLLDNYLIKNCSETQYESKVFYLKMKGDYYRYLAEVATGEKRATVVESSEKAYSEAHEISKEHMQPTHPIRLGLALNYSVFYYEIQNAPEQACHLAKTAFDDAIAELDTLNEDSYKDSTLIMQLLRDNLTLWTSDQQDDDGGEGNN
UniProt Q5BJH7: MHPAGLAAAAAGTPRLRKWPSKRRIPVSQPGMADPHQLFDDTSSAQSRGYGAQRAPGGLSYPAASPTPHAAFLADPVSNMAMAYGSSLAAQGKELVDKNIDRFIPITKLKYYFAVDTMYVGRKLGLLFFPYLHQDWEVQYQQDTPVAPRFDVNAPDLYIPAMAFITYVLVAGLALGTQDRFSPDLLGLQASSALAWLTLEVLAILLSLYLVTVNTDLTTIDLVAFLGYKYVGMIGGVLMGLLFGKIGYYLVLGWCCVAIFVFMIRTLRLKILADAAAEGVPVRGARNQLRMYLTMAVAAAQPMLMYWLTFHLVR
UniProt Q8NF64: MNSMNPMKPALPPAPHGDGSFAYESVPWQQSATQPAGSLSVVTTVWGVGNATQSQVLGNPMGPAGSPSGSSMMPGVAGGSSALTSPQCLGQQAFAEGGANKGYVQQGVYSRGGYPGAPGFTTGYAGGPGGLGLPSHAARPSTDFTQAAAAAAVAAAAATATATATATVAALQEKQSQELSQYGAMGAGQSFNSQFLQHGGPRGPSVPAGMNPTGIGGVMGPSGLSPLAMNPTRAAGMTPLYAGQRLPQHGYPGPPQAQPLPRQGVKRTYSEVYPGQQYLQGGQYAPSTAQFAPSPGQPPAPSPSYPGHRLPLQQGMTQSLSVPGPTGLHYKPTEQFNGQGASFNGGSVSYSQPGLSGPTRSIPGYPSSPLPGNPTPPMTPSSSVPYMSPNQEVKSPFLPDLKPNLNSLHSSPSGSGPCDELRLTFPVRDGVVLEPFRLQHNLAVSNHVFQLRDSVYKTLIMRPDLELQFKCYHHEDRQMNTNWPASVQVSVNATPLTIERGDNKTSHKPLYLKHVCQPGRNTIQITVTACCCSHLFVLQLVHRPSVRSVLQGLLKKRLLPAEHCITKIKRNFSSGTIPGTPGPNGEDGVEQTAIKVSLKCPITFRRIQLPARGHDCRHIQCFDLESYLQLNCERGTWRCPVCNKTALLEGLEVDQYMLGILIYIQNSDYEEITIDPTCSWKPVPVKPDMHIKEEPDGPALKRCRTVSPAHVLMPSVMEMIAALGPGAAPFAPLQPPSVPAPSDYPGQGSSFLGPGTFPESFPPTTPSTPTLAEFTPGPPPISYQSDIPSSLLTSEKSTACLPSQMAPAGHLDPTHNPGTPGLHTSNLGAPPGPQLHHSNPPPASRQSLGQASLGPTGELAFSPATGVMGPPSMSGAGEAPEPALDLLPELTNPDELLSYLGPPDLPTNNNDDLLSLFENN
UniProt Q9Y2Z4: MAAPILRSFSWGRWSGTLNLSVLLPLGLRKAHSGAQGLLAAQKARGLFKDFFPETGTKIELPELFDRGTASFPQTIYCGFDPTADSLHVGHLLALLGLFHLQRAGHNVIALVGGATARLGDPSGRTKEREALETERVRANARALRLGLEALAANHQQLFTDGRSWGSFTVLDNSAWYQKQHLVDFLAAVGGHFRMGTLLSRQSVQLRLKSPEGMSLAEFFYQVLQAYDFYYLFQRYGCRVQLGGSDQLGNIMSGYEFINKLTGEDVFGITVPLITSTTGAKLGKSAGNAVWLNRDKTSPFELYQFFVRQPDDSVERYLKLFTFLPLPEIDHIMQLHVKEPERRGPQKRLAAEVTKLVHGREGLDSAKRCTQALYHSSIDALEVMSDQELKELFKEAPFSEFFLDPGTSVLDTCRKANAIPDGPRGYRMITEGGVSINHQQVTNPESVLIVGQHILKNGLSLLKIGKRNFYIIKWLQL
UniProt Q9BW85: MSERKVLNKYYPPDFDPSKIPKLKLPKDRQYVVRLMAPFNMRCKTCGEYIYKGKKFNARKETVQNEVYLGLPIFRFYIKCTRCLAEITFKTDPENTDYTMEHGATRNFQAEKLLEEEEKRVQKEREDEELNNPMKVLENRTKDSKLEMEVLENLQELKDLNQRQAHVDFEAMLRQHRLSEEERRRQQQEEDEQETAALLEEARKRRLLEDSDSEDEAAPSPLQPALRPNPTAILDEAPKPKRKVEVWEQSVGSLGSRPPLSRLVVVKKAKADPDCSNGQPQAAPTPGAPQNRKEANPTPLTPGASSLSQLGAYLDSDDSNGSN
UniProt Q6PJT7: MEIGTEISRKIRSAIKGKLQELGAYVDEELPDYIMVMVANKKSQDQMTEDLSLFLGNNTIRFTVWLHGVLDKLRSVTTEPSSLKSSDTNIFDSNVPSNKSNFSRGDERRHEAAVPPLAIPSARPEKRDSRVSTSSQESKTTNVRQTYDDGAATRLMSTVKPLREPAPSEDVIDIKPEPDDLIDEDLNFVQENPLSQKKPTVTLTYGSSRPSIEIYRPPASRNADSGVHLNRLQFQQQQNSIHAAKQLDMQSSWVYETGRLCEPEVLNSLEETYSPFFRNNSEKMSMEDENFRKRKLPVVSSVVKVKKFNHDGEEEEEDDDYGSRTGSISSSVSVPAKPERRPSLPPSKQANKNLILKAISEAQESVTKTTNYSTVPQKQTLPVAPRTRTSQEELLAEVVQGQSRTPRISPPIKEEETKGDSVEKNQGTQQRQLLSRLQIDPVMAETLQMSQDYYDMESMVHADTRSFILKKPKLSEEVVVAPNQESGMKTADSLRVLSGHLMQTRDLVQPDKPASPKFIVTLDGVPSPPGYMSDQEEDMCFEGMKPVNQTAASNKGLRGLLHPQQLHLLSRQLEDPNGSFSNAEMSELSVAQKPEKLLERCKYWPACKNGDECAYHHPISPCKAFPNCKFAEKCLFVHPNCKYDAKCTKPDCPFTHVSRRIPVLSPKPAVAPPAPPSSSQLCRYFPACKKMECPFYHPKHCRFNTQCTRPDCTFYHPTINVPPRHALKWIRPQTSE
UniProt Q8IY57: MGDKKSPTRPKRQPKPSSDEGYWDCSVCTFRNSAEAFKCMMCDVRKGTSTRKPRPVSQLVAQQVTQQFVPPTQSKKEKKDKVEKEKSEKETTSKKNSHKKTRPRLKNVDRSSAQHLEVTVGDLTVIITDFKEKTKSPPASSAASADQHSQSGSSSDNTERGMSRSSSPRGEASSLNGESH
UniProt P16989, whole entry, looked up: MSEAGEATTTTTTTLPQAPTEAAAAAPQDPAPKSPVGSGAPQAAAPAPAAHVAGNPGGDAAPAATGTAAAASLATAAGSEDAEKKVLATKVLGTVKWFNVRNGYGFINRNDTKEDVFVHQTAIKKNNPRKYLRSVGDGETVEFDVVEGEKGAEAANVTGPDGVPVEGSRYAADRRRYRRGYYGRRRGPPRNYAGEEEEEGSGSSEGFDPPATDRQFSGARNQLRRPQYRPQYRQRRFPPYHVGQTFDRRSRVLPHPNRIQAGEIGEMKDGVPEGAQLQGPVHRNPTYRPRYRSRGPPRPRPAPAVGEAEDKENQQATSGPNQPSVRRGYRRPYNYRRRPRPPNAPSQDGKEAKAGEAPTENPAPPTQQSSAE
UniProt Q8IWT0: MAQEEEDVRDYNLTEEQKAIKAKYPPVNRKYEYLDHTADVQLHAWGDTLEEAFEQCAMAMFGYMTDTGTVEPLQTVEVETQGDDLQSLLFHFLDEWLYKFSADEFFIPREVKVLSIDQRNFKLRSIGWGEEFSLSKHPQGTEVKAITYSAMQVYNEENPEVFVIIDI
UniProt Q8IZN3: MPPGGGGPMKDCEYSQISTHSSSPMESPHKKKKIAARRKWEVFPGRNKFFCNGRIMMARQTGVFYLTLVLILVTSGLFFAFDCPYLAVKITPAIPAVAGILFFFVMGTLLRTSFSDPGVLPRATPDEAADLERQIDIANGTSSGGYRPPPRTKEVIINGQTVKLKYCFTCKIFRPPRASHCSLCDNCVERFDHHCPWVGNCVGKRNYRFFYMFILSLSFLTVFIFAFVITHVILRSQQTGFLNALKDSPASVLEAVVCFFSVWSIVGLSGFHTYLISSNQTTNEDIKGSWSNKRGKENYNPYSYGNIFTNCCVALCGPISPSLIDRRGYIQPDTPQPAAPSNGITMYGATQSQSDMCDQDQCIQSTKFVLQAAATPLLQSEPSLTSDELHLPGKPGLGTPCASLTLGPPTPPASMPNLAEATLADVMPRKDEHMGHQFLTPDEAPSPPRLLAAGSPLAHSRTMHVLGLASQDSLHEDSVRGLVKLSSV
UniProt Q7Z3T8: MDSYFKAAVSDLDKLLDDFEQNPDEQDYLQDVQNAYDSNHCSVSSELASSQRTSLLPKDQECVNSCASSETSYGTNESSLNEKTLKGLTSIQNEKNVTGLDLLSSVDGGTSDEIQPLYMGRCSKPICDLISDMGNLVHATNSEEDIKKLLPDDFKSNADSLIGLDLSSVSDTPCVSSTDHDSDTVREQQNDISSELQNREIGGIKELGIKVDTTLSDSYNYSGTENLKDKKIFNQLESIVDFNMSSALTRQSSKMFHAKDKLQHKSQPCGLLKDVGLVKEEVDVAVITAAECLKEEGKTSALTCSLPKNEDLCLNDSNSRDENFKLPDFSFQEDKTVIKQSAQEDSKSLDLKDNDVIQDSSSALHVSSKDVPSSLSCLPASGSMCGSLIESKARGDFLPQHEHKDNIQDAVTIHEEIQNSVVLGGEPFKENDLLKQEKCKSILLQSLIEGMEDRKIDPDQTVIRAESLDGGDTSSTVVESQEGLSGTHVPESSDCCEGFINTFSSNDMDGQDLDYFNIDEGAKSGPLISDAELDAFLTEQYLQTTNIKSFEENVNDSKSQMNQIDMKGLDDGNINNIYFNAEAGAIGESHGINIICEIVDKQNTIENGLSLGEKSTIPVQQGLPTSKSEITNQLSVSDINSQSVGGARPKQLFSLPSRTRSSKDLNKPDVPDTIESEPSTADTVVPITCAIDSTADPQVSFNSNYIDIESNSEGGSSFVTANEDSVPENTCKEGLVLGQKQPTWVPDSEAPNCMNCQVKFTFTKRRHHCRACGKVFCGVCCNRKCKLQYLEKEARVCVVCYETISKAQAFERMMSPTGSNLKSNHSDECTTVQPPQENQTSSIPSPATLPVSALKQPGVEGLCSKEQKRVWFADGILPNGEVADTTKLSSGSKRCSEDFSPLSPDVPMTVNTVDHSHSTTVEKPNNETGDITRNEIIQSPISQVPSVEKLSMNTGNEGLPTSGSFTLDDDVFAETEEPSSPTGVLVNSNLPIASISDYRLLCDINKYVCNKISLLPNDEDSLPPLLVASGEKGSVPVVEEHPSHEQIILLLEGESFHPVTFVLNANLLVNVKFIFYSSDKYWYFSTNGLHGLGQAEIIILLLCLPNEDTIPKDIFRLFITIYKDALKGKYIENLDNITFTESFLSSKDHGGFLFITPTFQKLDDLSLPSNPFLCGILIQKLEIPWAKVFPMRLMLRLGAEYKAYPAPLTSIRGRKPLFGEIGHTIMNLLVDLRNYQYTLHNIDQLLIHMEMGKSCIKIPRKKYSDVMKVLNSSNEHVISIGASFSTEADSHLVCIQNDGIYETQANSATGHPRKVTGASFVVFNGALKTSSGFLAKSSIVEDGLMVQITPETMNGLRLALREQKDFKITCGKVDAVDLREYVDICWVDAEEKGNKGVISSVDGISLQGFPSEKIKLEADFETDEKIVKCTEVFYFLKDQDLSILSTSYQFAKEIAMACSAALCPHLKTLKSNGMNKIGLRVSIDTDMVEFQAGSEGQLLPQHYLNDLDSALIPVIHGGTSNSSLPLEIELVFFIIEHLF
UniProt O75844: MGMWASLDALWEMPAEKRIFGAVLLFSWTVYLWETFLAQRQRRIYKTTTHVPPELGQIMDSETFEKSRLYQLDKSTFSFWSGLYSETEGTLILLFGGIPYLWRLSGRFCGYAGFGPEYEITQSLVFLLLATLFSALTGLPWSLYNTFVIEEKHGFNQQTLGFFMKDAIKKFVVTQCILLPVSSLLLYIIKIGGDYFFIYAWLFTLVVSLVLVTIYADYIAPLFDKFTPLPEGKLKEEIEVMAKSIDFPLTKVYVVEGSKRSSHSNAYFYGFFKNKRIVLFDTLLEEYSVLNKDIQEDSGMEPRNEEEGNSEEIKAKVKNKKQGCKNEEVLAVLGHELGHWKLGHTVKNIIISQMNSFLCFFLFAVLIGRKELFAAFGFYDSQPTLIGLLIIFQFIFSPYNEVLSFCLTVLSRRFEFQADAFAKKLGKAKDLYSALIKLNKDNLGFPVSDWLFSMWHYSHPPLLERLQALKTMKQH

Key:
Assay in all cases: log2 fold change, soluble protein after heating vs DMSO (PISA); higher = thermal stabilisation; K562 cells, 10 uM, 30 min; active = over 0.2 and 3.5 SD of the protein, either way, in both replicates (recomputed)
saracatinib = compound: CN1CCN(CCOc2cc(OC3CCOCC3)c3c(Nc4c(Cl)ccc5c4OCO5)ncnc3c2)CC1 [saracatinib]
Method in brief: (§1)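 Soluble protein was defined as the supernatant after 21,000xg for 90 min. It came from K562 cells at 2×10^6 cells/mL given 10 μM compound for 30 min, heated in aliquots for 3 min across 48°C-58°C, pooled, and extracted in PBS with 0.5% NP-40 at 4°C, and was quantified by TMTpro 16plex LC-MS/MS with equalised channel sums. Thermal stability against control samples, from duplicates, is reported as log2 fold change.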

sotrastaurin = compound: CN1CCN(c2nc(C3=C(c4c[nH]c5ccccc45)C(=O)NC3=O)c3ccccc3n2)CC1 [sotrastaurin]
Method in brief: as §1

alvocidib = compound: CN1CC[C@H](c2c(O)cc(O)c3c(=O)cc(-c4ccccc4Cl)oc23)[C@H](O)C1 [alvocidib]
Method in brief: as §1

Tubastatin A = compound: CN1CCc2c(c3ccccc3n2Cc2ccc(C(=O)NO)cc2)C1 [Tubastatin A]
Method in brief: as §1

[1] = compound: CNC(=O)C1=CC=CC=C1NC2=NC(=NC=C2Cl)NC3=C(C=C(C=C3)N4CCOCC4)OC
Method in brief: as §1

defactinib = compound: CNC(=O)c1ccc(Nc2ncc(C(F)(F)F)c(NCc3nccnc3N(C)S(C)(=O)=O)n2)cc1 [defactinib]
Method in brief: as §1

rucaparib = compound: CNCc1ccc(-c2[nH]c3cc(F)cc4c3c2CCNC4=O)cc1 [rucaparib]
Method in brief: as §1

[2] = compound: CNc1nc(-c2ccc3c(N)n[nH]c3c2)cc(N2C[C@@H](C(=O)NC3CCCCC3)CC[C@H]2C)n1
Method in brief: as §1

encorafenib = compound: COC(=O)N[C@@H](C)CNc1nccc(-c2cn(C(C)C)nc2-c2cc(Cl)cc(NS(C)(=O)=O)c2F)n1 [encorafenib]
Method in brief: as §1

[3] = compound: COC(=O)[C@H](CCSC)NC(=O)C1=C(C=C(C=C1)NC[C@H](CS)N)C2=CC=CC=C2
Method in brief: as §1

[4] = compound: COC1=CC=C(C=C1)CN2C=CC3=C2C=C(C=C3)C(=O)NO
Method in brief: as §1

filanesib = compound: CON(C)C(=O)N1N=C(c2cc(F)ccc2F)S[C@@]1(CCCN)c1ccccc1 [filanesib]
Method in brief: as §1

zotarolimus = compound: CO[C@H]1C[C@@H]2CC[C@@H](C)[C@@](O)(O2)C(=O)C(=O)N2CCCC[C@H]2C(=O)O[C@H]([C@H](C)C[C@@H]2CC[C@H](n3cnnn3)[C@H](OC)C2)CC(=O)[C@H](C)/C=C(\C)[C@@H](O)[C@@H](OC)C(=O)[C@H](C)C[C@H](C)/C=C/C=C/C=C/1C [zotarolimus]
Method in brief: as §1

idasanutlin = compound: COc1cc(C(=O)O)ccc1NC(=O)[C@@H]1N[C@@H](CC(C)(C)C)[C@](C#N)(c2ccc(Cl)cc2F)[C@H]1c1cccc(Cl)c1F [idasanutlin]
Method in brief: as §1

alisertib = compound: COc1cc(Nc2ncc3c(n2)-c2ccc(Cl)cc2C(c2c(F)cccc2OC)=NC3)ccc1C(=O)O [alisertib]
Method in brief: as §1

[5] = compound: COc1cc2nc(-c3cc(F)ccc3O)nc(N[C@@H]3CNC[C@H]3C(C)(C)O)c2cc1OC
Method in brief: as §1

gefitinib = compound: COc1cc2ncnc(Nc3ccc(F)c(Cl)c3)c2cc1OCCCN1CCOCC1 [gefitinib]
Method in brief: as §1

[6] = compound: COc1cccc2cc(-c3nc([C@H]4CC[C@H](C(=O)O)CC4)n4ncnc(N)c34)[nH]c12
Method in brief: as §1

lapatinib = compound: CS(=O)(=O)CCNCc1ccc(-c2ccc3ncnc(Nc4ccc(OCc5cccc(F)c5)c(Cl)c4)c3c2)o1 [lapatinib]
Method in brief: as §1

pictilisib = compound: CS(=O)(=O)N1CCN(Cc2cc3nc(-c4cccc5[nH]ncc45)nc(N4CCOCC4)c3s2)CC1 [pictilisib]
Method in brief: as §1

Measured: log2 fold change

ZDHHC3 isoform 2 (UniProt Q9NYG2)
inactive: saracatinib 0.039 | sotrastaurin 0.015 | alvocidib -0.02 | Tubastatin A 0.01 | [1] 0 | defactinib -0.072 | rucaparib -0.026 | [2] -0.074 | encorafenib -0.009 | [3] 0.077 | [4] 0.007 | filanesib -0.042 | zotarolimus -0.056 | idasanutlin 0.033 | alisertib 0.014 | [5] -0.072 | gefitinib -0.017 | [6] 0.103 | lapatinib -0.111 | pictilisib 0.021

YWHAG (UniProt P61981)
inactive: saracatinib 0.089 | sotrastaurin 0.047 | alvocidib 0.026 | Tubastatin A -0.02 | [1] 0.014 | defactinib -0.012 | rucaparib 0.007 | [2] 0.031 | encorafenib -0.065 | [3] 0.012 | [4] 0 | filanesib -0.019 | zotarolimus 0.022 | idasanutlin 0.03 | alisertib -0.074 | [5] -0.045 | gefitinib 0.002 | [6] -0.047 | lapatinib -0.008 | pictilisib 0.014

ZFYVE27 isoform 2 (UniProt Q5T4F4)
inactive: saracatinib 0.022 | sotrastaurin 0 | alvocidib -0.021 | Tubastatin A 0.029 | [1] -0.006 | defactinib 0 | rucaparib -0.006 | [2] -0.077 | encorafenib -0.026 | [3] 0.012 | [4] 0.007 | filanesib -0.141 | zotarolimus 0.038 | idasanutlin 0.029 | alisertib 0.008 | [5] 0.032 | gefitinib 0.012 | [6] 0.047 | lapatinib -0.001 | pictilisib -0.079

ZCCHC8 (UniProt Q6NZY4)
inactive: saracatinib -0.058 | sotrastaurin -0.013 | alvocidib -0.006 | Tubastatin A -0.019 | [1] 0.112 | defactinib 0.002 | rucaparib 0.04 | [2] 0.011 | encorafenib -0.004 | [3] 0.027 | [4] -0.023 | filanesib -0.024 | zotarolimus 0.025 | idasanutlin 0.024 | alisertib -0.096 | [5] -0.013 | gefitinib -0.045 | [6] -0.031 | lapatinib 0.065 | pictilisib 0.028

YIF1B (UniProt Q5BJH7)
inactive: saracatinib 0.209 | sotrastaurin -0.011 | alvocidib -0.049 | Tubastatin A 0.001 | [1] 0.009 | defactinib 0.076 | rucaparib -0.015 | [2] -0.025 | encorafenib 0.001 | [3] -0.033 | [4] 0.081 | filanesib -0.043 | zotarolimus 0.044 | idasanutlin 0.05 | alisertib -0.112 | [5] -0.148 | gefitinib 0.005 | [6] 0.075 | lapatinib 0.036 | pictilisib -0.028

ZMIZ2 (UniProt Q8NF64)
inactive: saracatinib 0.127 | sotrastaurin 0.082 | alvocidib -0.012 | Tubastatin A -0.14 | [1] -0.041 | defactinib 0.013 | rucaparib -0.077 | [2] -0.073 | encorafenib -0.011 | [3] 0.033 | [4] -0.178 | filanesib -0.043 | zotarolimus -0.093 | idasanutlin 0.005 | alisertib -0.009 | [5] 0.133 | gefitinib 0.01 | [6] -0.041 | lapatinib -0.081 | pictilisib 0.023

YARS2 (UniProt Q9Y2Z4)
inactive: saracatinib -0.098 | sotrastaurin -0.132 | alvocidib -0.096 | Tubastatin A -0.114 | [1] 0.005 | defactinib -0.24 | rucaparib 0.166 | [2] 0.09 | encorafenib -0.005 | [3] 0.03 | [4] 0.054 | filanesib 0.158 | zotarolimus 0.058 | idasanutlin -0.056 | alisertib -0.111 | [5] 0.23 | gefitinib 0.091 | [6] 0.125 | lapatinib -0.338 | pictilisib -0.037

YJU2 (UniProt Q9BW85)
inactive: saracatinib 0.026 | sotrastaurin -0.029 | alvocidib -0.052 | Tubastatin A 0.005 | [1] 0.018 | defactinib -0.002 | rucaparib 0.034 | [2] -0.1 | encorafenib -0.034 | [3] 0.006 | [4] -0.041 | filanesib -0.021 | zotarolimus 0.011 | idasanutlin 0.004 | alisertib 0.029 | [5] 0.032 | gefitinib -0.009 | [6] -0.03 | lapatinib -0.003 | pictilisib 0.009

ZC3H14 (UniProt Q6PJT7)
inactive: saracatinib 0.078 | sotrastaurin -0.077 | alvocidib 0.045 | Tubastatin A -0.064 | [1] -0.063 | defactinib 0.117 | rucaparib 0.066 | [2] -0.174 | encorafenib -0.002 | [3] -0.019 | [4] -0.04 | filanesib 0.158 | zotarolimus -0.082 | idasanutlin 0 | alisertib 0.037 | [5] 0.125 | gefitinib -0.076 | [6] -0.01 | lapatinib 0.144 | pictilisib -0.005

YAF2 isoform 5 (UniProt Q8IY57)
inactive: saracatinib 0.115 | sotrastaurin -0.082 | alvocidib 0.009 | Tubastatin A 0.026 | [1] -0.067 | defactinib -0.38 | rucaparib 0.099 | [2] 0.139 | encorafenib -0.012 | [3] -0.023 | [4] 0.044 | filanesib 0.035 | zotarolimus -0.026 | idasanutlin 0.089 | alisertib -0.078 | [5] -0.031 | gefitinib 0.16 | [6] 0.14 | lapatinib 0.007 | pictilisib 0.092

YBX3 (UniProt P16989)
inactive: saracatinib -0.01 | sotrastaurin 0.058 | alvocidib 0.242 | Tubastatin A 0.012 | [1] 0.044 | defactinib 0.251 | rucaparib 0.249 | [2] 0.028 | encorafenib 0.028 | [3] 0.048 | [4] -0.043 | filanesib 0.244 | zotarolimus -0.063 | idasanutlin 0.179 | alisertib -0.078 | [5] 0.005 | gefitinib -0.054 | [6] -0.153 | lapatinib 0.063 | pictilisib 0.006

ZBTB8OS (UniProt Q8IWT0)
inactive: saracatinib -0.007 | sotrastaurin 0.029 | alvocidib 0.124 | Tubastatin A -0.042 | [1] 0.038 | defactinib -0.053 | rucaparib -0.133 | [2] -0.061 | encorafenib 0.046 | [3] 0.034 | [4] 0.004 | filanesib -0.159 | zotarolimus -0.132 | idasanutlin -0.048 | alisertib -0.038 | [5] 0.059 | gefitinib 0.009 | [6] -0.009 | lapatinib -0.032 | pictilisib 0.184

ZDHHC14 (UniProt Q8IZN3)
inactive: saracatinib 0.054 | sotrastaurin 0.023 | alvocidib -0.045 | Tubastatin A -0.157 | [1] -0.062 | defactinib -0.126 | rucaparib -0.059 | [2] -0.076 | encorafenib 0.126 | [3] -0.049 | [4] 0 | filanesib 0.005 | zotarolimus -0.065 | idasanutlin 0.032 | alisertib 0.038 | [5] 0.072 | gefitinib 0.033 | [6] 0.136 | lapatinib 0.004

Pulled one by one from above, 2 records:
ZDHHC14 (UniProt Q8IZN3)
inactive: saracatinib 0.054 | sotrastaurin 0.023 | alvocidib -0.045 | Tubastatin A -0.157 | [1] -0.062 | defactinib -0.126 | rucaparib -0.059 | [2] -0.076 | encorafenib 0.126 | [3] -0.049 | [4] 0 | filanesib 0.005 | zotarolimus -0.065 | idasanutlin 0.032 | alisertib 0.038 | [5] 0.072 | gefitinib 0.033 | [6] 0.136 | lapatinib 0.004

YBX3 (UniProt P16989)
inactive: saracatinib -0.01 | sotrastaurin 0.058 | alvocidib 0.242 | Tubastatin A 0.012 | [1] 0.044 | defactinib 0.251 | rucaparib 0.249 | [2] 0.028 | encorafenib 0.028 | [3] 0.048 | [4] -0.043 | filanesib 0.244 | zotarolimus -0.063 | idasanutlin 0.179 | alisertib -0.078 | [5] 0.005 | gefitinib -0.054 | [6] -0.153 | lapatinib 0.063 | pictilisib 0.006

(further entries)

ZFYVE16 (UniProt Q7Z3T8)
inactive: saracatinib -0.005 | sotrastaurin -0.003 | alvocidib -0.058 | Tubastatin A -0.01 | [1] -0.024 | defactinib -0.046 | rucaparib -0.02 | [2] -0.028 | encorafenib -0.007 | [3] -0.015 | [4] -0.078 | filanesib -0.031 | zotarolimus 0.017 | idasanutlin -0.014 | alisertib 0.02 | [5] 0.054 | gefitinib 0.009 | [6] 0.028 | lapatinib 0.006 | pictilisib 0.073

ZMPSTE24 (UniProt O75844)
inactive: saracatinib 0.005 | sotrastaurin 0.025 | alvocidib 0.006 | Tubastatin A -0.022 | [1] 0.009 | defactinib -0.02 | rucaparib -0.055 | [2] 0.006 | encorafenib 0.002 | [3] -0.007 | [4] -0.039 | filanesib -0.066 | zotarolimus 0.156 | idasanutlin -0.003 | alisertib -0.031 | [5] -0.002 | gefitinib 0.042 | [6] 0.058 | lapatinib 0.056 | pictilisib 0.042
